One substance from US10335608B2, “Photodynamic compounds and methods for activating them using ionizing radiation and/or other electromagnetic radiation for therapy and/or diagnostics” (THERALASE TECHNOLOGIES, INC., priority 2016, dated 2019) can be followed below.

This series can be described thus: Singlet oxygen generation (SOG fluorescence) under red light after X-ray exposure. Type of series: physicochemical. To be noted: 500 μM; red light (625 nm) irradiation without or with prior X-ray (5 or 20 Gy).

With “Ru(4,4′-dimethyl-2,2′-bipyridine)2Cl2 [TLD1433]”, the “Singlet oxygen generation (SOG fluorescence)” value was “accelerated singlet oxygen generation”.
